Laboratory results published in PubChem BioAssay AID188 (DTP/NCI, 2004).
Values are animals surviving of animals treated; these mice carried no tumour. Survivors were counted at the toxicity check, usually on the fifth day, unless a day is given; later deaths do not show. Schedule codes are those of the source, taken here to give the interval after Q, in days (D) or hours (H), and the number of doses after X.

Tested on: CD2F1 mice, nontumored, toxicity/survival
Test: NCI In Vivo Anticancer Drug Screen. Data for tumor model Nontumored Animals (Toxicity Test) in CD2F1 (CDF1) mice
[1] = dose: 100.0 mg/kg/injection, schedule: Q01DX001 (ip), vehicle: water

Measured: survivor count

N=[N+]=CC(=O)CCC(NC(=O)C(CCC(=O)C=[N+]=N)NC(=O)CCC(N)C(=O)O)C(=O)O (stereo not drawn)
6 of 8: dose: 1.6 mg/kg/injection, schedule: Q03HX016 (ip), vehicle: water | dose: 1.6 mg/kg/injection, schedule: Q03HX024 (ip), vehicle: water | dose: 3.1 mg/kg/injection, schedule: Q03HX016 (ip), vehicle: water | dose: 6.2 mg/kg/injection, schedule: Q03HX008 (ip), vehicle: water | dose: 6.25 mg/kg/injection, schedule: Q03HX016 (ip), vehicle: water
7 of 7: dose: 100.0 mg/kg/injection, schedule: Q01DX001 (sc), vehicle: water
0 of 8: dose: 50.0 mg/kg/injection, schedule: Q03HX008 (ip), vehicle: water
4 of 8: dose: 12.5 mg/kg/injection, schedule: Q03HX008 (ip), vehicle: water | dose: 12.5 mg/kg/injection, schedule: Q03HX016 (ip), vehicle: water | dose: 12.5 mg/kg/injection, schedule: Q03HX024 (ip), vehicle: water | dose: 25.0 mg/kg/injection, schedule: Q03HX008 (ip), vehicle: water | dose: 25.0 mg/kg/injection, schedule: Q03HX016 (ip), vehicle: water
8 of 8: dose: 0.01 mg/kg/injection, schedule: Q01DX009 (ip), vehicle: water | dose: 0.03 mg/kg/injection, schedule: Q01DX009 (ip), vehicle: water | dose: 0.05 mg/kg/injection, schedule: Q01DX009 (ip), vehicle: water | dose: 0.05 mg/kg/injection, schedule: Q01DX009 (oral), vehicle: water | dose: 0.05 mg/kg/injection, schedule: Q01DX009 (sc), vehicle: water | dose: 0.1 mg/kg/injection, schedule: Q01DX009 (ip), vehicle: water | dose: 0.1 mg/kg/injection, schedule: Q01DX009 (oral), vehicle: water | dose: 0.1 mg/kg/injection, schedule: Q01DX009 (sc), vehicle: water | dose: 0.2 mg/kg/injection, schedule: Q01DX009 (ip), vehicle: water | dose: 0.2 mg/kg/injection, schedule: Q01DX009 (oral), vehicle: water | dose: 0.2 mg/kg/injection, schedule: Q01DX009 (sc), vehicle: water | dose: 0.4 mg/kg/injection, schedule: Q01DX009 (oral), vehicle: water | dose: 0.4 mg/kg/injection, schedule: Q01DX009 (sc), vehicle: water | dose: 0.8 mg/kg/injection, schedule: Q01DX009 (oral), vehicle: water | dose: 0.8 mg/kg/injection, schedule: Q01DX009 (sc), vehicle: water | dose: 0.8 mg/kg/injection, schedule: Q03HX024 (ip), vehicle: water | dose: 6.2 mg/kg/injection, schedule: Q04DX003 (ip), vehicle: water | dose: 12.5 mg/kg/injection, schedule: Q04DX003 (ip), vehicle: water | dose: 12.5 mg/kg/injection, schedule: Q08DX002 (ip), vehicle: water | dose: 25.0 mg/kg/injection, schedule: Q01DX001 (ip), vehicle: water | dose: 25.0 mg/kg/injection, schedule: Q01DX001 (oral), vehicle: water | dose: 25.0 mg/kg/injection, schedule: Q01DX001 (sc), vehicle: water | dose: 25.0 mg/kg/injection, schedule: Q04DX003 (ip), vehicle: water | dose: 25.0 mg/kg/injection, schedule: Q08DX002 (ip), vehicle: water | dose: 50.0 mg/kg/injection, schedule: Q01DX001 (ip), vehicle: water | dose: 50.0 mg/kg/injection, schedule: Q01DX001 (oral), vehicle: water | dose: 50.0 mg/kg/injection, schedule: Q01DX001 (sc), vehicle: water | dose: 50.0 mg/kg/injection, schedule: Q04DX003 (ip), vehicle: water | dose: 50.0 mg/kg/injection, schedule: Q08DX002 (ip), vehicle: water | dose: 100.0 mg/kg/injection, schedule: Q01DX001 (oral), vehicle: water | dose: 100.0 mg/kg/injection, schedule: Q04DX003 (ip), vehicle: water | dose: 100.0 mg/kg/injection, schedule: Q08DX002 (ip), vehicle: water | dose: 200.0 mg/kg/injection, schedule: Q01DX001 (ip), vehicle: water | dose: 200.0 mg/kg/injection, schedule: Q01DX001 (oral), vehicle: water
7 of 8: dose: 3.1 mg/kg/injection, schedule: Q03HX008 (ip), vehicle: water | dose: 3.1 mg/kg/injection, schedule: Q03HX024 (ip), vehicle: water | dose: 6.25 mg/kg/injection, schedule: Q03HX024 (ip), vehicle: water | [1] | dose: 200.0 mg/kg/injection, schedule: Q01DX001 (sc), vehicle: water | dose: 200.0 mg/kg/injection, schedule: Q08DX002 (ip), vehicle: water | dose: 400.0 mg/kg/injection, schedule: Q01DX001 (ip), vehicle: water | dose: 400.0 mg/kg/injection, schedule: Q01DX001 (oral), vehicle: water | dose: 400.0 mg/kg/injection, schedule: Q01DX001 (sc), vehicle: water

N#Cc1cn(C2OC(CO)C(O)C2O)c2ncnc(N)c12 (stereo not drawn)
8 of 8: dose: 0.1 mg/kg/injection, schedule: Q06HX024 (ip), vehicle: saline | dose: 0.2 mg/kg/injection, schedule: Q06HX024 (ip), vehicle: saline
6 of 7: dose: 0.4 mg/kg/injection, schedule: Q06HX024 (ip), vehicle: saline

S=c1nc[nH]c2nc[nH]c12
10 of 10: dose: 22.0 mg/kg/injection, schedule: Q01DX009 (ip), vehicle: Klucel (hydroxypropylcellulose) (HPC) | dose: 50.0 mg/kg/injection, schedule: Q01DX009 (ip), vehicle: Klucel (hydroxypropylcellulose) (HPC)
8 of 10: dose: 33.0 mg/kg/injection, schedule: Q01DX009 (ip), vehicle: Klucel (hydroxypropylcellulose) (HPC)
4 of 4: dose: 43.2 mg/kg/injection, schedule: Q04DX003 (ip), vehicle: other | dose: 72.0 mg/kg/injection, schedule: Q04DX003 (ip), vehicle: other | dose: 100.0 mg/kg/injection, schedule: Q01DX001 (ip), vehicle: alkali diluted with water | dose: 120.0 mg/kg/injection, schedule: Q04DX003 (ip), vehicle: other | dose: 167.0 mg/kg/injection, schedule: Q01DX001 (ip), vehicle: alkali diluted with water | dose: 200.0 mg/kg/injection, schedule: Q04DX003 (ip), vehicle: other | dose: 278.0 mg/kg/injection, schedule: Q01DX001 (ip), vehicle: alkali diluted with water
5 of 5: dose: 15.6 mg/kg/injection, schedule: Q01DX009 (ip), vehicle: alkali diluted with saline | dose: 25.9 mg/kg/injection, schedule: Q01DX009 (ip), vehicle: alkali diluted with saline | dose: 43.2 mg/kg/injection, schedule: Q01DX009 (ip), vehicle: alkali diluted with saline | dose: 72.0 mg/kg/injection, schedule: Q01DX009 (ip), vehicle: alkali diluted with saline | dose: 120.0 mg/kg/injection, schedule: Q01DX009 (ip), vehicle: alkali diluted with saline

OCC(O)C(O)C(O)C(O)CO (stereo not drawn)
8 of 8: dose: 0.63 mg/kg/injection, schedule: Q01DX009 (ip), vehicle: saline | dose: 1.25 mg/kg/injection, schedule: Q01DX009 (ip), vehicle: saline | dose: 2.5 mg/kg/injection, schedule: Q01DX009 (ip), vehicle: saline | dose: 5.0 mg/kg/injection, schedule: Q01DX009 (ip), vehicle: saline | dose: 10.0 mg/kg/injection, schedule: Q01DX009 (ip), vehicle: saline | dose: 20.0 mg/kg/injection, schedule: Q01DX009 (ip), vehicle: saline | dose: 40.0 mg/kg/injection, schedule: Q01DX009 (ip), vehicle: saline

Nc1nc(N)c(NC=O)c(N)n1
2 of 2: dose: 1.0 mg/kg/injection, schedule: Q01DX001 (ip), vehicle: water | dose: 10.0 mg/kg/injection, schedule: Q01DX001 (ip), vehicle: water | [1]

CN(C)N=Nc1ccccc1
10 of 10: dose: 37.0 mg/kg/injection, schedule: Q01DX009 (ip), vehicle: Klucel (hydroxypropylcellulose) (HPC) | dose: 55.0 mg/kg/injection, schedule: Q01DX009 (ip), vehicle: Klucel (hydroxypropylcellulose) (HPC)
9 of 10: dose: 83.0 mg/kg/injection, schedule: Q01DX009 (ip), vehicle: Klucel (hydroxypropylcellulose) (HPC)
7 of 10: dose: 25.0 mg/kg/injection, schedule: Q01DX009 (ip), vehicle: Klucel (hydroxypropylcellulose) (HPC)
1 of 10: dose: 125.0 mg/kg/injection, schedule: Q01DX009 (ip), vehicle: Klucel (hydroxypropylcellulose) (HPC)

C1CC(N2CC2)CCC1N1CC1 (stereo not drawn)
0 of 10: dose: 44.0 mg/kg/injection, schedule: Q04DX003 (ip), vehicle: saline | dose: 67.0 mg/kg/injection, schedule: Q04DX003 (ip), vehicle: saline | dose: 100.0 mg/kg/injection, schedule: Q04DX003 (ip), vehicle: saline | dose: 150.0 mg/kg/injection, schedule: Q04DX003 (ip), vehicle: saline
6 of 10: dose: 20.0 mg/kg/injection, schedule: Q04DX003 (ip), vehicle: saline
3 of 10: dose: 30.0 mg/kg/injection, schedule: Q04DX003 (ip), vehicle: saline
10 of 10: dose: 4.0 mg/kg/injection, schedule: Q04DX003 (ip), vehicle: saline | dose: 6.0 mg/kg/injection, schedule: Q04DX003 (ip), vehicle: saline | dose: 9.0 mg/kg/injection, schedule: Q04DX003 (ip), vehicle: saline | dose: 13.0 mg/kg/injection, schedule: Q04DX003 (ip), vehicle: saline
